Results published in paper PMC11894219.
Results are given in words; binding and its absence hold for the method and conditions named. Binding seen in cells or lysates may run through a third protein. Here binding means that the protein was enriched with, or labelled near, the bait; the list need not be complete. For part of these data: Tags and fused reporters may be left off the sequences shown.

Chains of the proteins cited; added tags and fusions are not shown.
UniProt P54132: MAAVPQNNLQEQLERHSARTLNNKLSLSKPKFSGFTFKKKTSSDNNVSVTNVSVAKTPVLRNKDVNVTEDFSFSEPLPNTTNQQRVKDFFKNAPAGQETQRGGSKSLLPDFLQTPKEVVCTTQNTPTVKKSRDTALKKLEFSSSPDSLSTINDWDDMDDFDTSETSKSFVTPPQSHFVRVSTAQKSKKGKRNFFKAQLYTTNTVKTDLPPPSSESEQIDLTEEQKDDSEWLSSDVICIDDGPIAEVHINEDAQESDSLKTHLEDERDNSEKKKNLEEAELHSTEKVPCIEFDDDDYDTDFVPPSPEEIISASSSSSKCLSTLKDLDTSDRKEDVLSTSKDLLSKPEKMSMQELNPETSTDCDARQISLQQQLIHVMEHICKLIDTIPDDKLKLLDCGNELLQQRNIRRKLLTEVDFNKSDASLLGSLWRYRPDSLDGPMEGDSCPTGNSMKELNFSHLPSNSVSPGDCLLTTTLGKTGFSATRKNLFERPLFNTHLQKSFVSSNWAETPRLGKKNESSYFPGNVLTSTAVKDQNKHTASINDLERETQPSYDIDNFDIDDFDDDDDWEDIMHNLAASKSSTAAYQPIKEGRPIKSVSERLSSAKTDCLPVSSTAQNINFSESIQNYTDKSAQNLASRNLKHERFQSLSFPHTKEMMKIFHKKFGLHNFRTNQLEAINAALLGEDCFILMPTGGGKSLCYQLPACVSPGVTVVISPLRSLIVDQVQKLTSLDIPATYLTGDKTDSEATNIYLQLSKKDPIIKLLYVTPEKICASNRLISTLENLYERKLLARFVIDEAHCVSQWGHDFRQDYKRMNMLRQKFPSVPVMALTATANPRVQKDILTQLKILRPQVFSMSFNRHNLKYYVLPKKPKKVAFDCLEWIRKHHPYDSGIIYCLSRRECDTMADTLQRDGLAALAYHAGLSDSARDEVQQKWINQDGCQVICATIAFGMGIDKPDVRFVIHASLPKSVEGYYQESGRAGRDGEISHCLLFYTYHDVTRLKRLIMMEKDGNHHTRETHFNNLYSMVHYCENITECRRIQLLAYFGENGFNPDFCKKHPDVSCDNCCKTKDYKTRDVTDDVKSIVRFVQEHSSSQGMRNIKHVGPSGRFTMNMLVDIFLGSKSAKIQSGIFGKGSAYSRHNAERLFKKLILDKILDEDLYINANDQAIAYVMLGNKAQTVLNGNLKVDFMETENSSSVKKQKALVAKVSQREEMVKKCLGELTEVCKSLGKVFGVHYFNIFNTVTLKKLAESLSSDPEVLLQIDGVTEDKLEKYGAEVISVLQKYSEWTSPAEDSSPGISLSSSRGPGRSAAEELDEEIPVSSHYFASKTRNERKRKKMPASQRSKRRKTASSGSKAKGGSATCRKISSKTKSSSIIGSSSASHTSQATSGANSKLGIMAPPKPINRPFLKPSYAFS

Experiments:
FLAG-BirA*-BLM (human) = FLAG-BirA*-BLM (human) (UniProt P54132); assay: proximity labelling; BioID with N-terminal BirA* fusions of BLM, TOP3A, RMI1 or RMI2 in HEK293; doxycycline and 50 uM biotin for 24 h; RIPA lysis, streptavidin-sepharose, mass spectrometry; SAINTexpress BFDR <=0.01
FLAG-BirA*-RMI1 (human) = biological target: T1, FLAG-BirA*-RMI1 (human) (UniProt Q9H9A7); assay: as above
T1 sequence: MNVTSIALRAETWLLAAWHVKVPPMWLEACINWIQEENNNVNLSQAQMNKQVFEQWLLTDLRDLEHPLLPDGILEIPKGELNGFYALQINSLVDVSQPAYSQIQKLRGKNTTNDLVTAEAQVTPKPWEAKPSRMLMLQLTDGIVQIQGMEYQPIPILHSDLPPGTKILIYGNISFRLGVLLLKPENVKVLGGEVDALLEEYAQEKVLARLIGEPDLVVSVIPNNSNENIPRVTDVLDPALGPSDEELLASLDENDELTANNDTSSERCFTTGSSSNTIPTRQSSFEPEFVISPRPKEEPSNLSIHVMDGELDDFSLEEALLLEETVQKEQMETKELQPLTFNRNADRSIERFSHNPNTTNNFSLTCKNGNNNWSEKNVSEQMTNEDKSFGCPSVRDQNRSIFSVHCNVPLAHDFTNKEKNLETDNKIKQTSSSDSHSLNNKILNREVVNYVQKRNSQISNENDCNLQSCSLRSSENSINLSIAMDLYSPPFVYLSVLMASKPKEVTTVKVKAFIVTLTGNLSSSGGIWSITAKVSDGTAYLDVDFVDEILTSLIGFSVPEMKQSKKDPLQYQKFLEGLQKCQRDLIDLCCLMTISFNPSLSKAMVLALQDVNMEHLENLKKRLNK

[1] = biological target: T2, FLAG-BirA*-RAD54L2 (human) (UniProt Q9Y4B4); assay: proximity labelling; BioID with BirA*-RAD54L2 in HEK293; doxycycline and 50 uM biotin for 24 h; streptavidin-sepharose, mass spectrometry; BFDR <=0.01
T2 sequence: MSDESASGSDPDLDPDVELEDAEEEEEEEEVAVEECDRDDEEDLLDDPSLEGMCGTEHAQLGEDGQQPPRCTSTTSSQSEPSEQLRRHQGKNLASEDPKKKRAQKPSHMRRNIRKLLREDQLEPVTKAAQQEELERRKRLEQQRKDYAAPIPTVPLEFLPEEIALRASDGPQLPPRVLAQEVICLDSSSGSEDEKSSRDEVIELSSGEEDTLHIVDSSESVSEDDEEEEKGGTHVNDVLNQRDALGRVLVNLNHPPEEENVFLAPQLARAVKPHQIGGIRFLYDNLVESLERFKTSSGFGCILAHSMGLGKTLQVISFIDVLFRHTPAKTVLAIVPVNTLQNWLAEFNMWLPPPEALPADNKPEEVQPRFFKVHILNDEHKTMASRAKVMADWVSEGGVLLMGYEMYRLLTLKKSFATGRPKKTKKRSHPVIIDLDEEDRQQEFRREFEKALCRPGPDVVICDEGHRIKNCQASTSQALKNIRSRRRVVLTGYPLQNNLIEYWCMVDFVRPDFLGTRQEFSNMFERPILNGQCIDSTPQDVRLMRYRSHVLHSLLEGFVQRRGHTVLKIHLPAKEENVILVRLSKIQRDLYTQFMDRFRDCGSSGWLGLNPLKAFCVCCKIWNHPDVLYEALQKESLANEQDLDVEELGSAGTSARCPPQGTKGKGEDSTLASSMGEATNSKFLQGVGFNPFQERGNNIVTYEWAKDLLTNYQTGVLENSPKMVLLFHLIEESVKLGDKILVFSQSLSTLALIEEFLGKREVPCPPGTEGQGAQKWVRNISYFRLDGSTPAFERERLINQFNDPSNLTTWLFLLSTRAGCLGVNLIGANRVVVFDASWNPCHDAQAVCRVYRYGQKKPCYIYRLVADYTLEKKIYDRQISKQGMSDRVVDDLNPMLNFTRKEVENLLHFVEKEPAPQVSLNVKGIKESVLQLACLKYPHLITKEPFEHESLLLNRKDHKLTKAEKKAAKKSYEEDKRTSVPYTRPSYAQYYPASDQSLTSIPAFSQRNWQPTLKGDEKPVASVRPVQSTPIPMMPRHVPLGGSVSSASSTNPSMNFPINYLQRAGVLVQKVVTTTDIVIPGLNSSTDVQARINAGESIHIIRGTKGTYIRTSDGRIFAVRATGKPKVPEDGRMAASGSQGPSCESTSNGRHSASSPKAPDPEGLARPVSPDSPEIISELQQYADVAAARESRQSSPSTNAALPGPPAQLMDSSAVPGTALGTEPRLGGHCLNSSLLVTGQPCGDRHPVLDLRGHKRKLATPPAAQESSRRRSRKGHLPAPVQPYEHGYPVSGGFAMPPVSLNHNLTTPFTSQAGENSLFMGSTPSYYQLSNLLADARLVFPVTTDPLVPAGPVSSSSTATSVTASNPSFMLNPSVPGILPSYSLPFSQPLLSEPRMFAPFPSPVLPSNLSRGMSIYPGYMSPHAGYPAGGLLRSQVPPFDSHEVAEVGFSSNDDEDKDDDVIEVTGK

Measured: binding

B1: ZNF451 (protein, UniProt Q9Y4E5 1-1061)
chain: MGDPGSEIIESVPPAGPEASESTTDENEDDIQFVSEGPLRPVLEYIDLVSSDDEEPSTSYTDENIKRKDHIDYQKDKVALTLARLARHVEVEKQQKEEKNRAFREKIDFQHAHGLQELEFIRGHSDTEAARLCVDQWLKMPGLKTGTINCGTKSSFRRGGHTWVSGKPILCPIMHCNKEFDNGHLLLGHLKRFDHSPCDPTITLHGPFFSSFACVVCYKKFVTQQQYRDHLFDKEATDDGHNNNLLPQIIQCFACPNCFLLFSRKEECSKHMSGKNHFHQSFKLGDNKGIAHPISFPSFAKKLLISLCKDVPFQVKCVACHKTLRSHMELTAHFRVHCRNAGPVAVAEKSITQVAEKFILRGYCPDCNQVFVDETSTQNHKQNSGHKVRVINSVEESVLLYCHSSEGNKDPSSDLHLLLDQSKFSSLKRTMSIKESSSLECIAIPKKKMNLKDKSHEGVACVQKEKSVVKTWFCECNQRFPSEDAVEKHVFSANTMGYKCVVCGKVCDDSGVIRLHMSRIHGGAHLNNFLFWCRTCKKELTRKDTIMAHVTEFHNGHRYFYEMDEVEGETLPSSSTTLDNLTANKPSSAITVIDHSPANSSPRGKWQCRICEDMFDSQEYVKQHCMSLASHKFHRYSCAHCRKPFHKIETLYRHCQDEHDNEIKIKYFCGLCDLIFNVEEAFLSHYEEHHSIDYVFVSEKTETSIKTEDDFPVIETSNQLTCGCRESYICKVNRKEDYSRCLQIMLDKGKLWFRCSLCSATAQNLTDMNTHIHQVHKEKSDEEEQQYVIKCGTCTKAFHDPESAQQHFHRKHCFLQKPSVAHFGSEKSNLYKFTASASHTERKLKQAINYSKSLDMEKGVENDLSYQNIEEEIVELPDLDYLRTMTHIVFVDFDNWSNFFGHLPGHLNQGTFIWGFQGGNTNWKPPLNCKIYNYLNRIGCFFLHPRCSKRKDAADFAICMHAGRLDEQLPKQIPFTILSGDQGFLELENQFKKTQRPAHILNPHHLEGDMMCALLNSISDTTKECDSDDNMGAKNTSIGEEFISTEDVELEEAIRRSLEEM
binds: FLAG-BirA*-BLM (human) | FLAG-BirA*-RMI1 (human) | [1]
